In PMC8009405, “POT1 stability and binding measured by fluorescence thermal shift assays”:

Molecular target: T1, POT1 (POT1-N) (UniProt Q9NUX5)
T1 sequence (looked up, limits assumed): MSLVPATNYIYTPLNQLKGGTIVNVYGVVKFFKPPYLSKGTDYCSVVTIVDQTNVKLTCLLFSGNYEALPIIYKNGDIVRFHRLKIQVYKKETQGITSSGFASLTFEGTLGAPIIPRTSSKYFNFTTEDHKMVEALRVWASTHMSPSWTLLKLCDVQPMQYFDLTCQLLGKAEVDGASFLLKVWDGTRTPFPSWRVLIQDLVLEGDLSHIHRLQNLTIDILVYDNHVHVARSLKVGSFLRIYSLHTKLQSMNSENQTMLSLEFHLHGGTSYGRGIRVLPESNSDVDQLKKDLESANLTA
Test: FTSA (SYPRO Orange)
Details: 5 uM POT1, 50 uM DNA, little or no Tm change; 20 mM potassium phosphate, 180 mM KCl, pH 7.2; FTSA 20-99 °C, typically 5 uM POT1 and 50 uM DNA; recombinant protein; protein details: C-terminal 6xHis; folded or branched DNA

“TGAGGGTGGGTAGGGTGGGTAA [1XAV (modified c-myc promoter G4)]”: no binding.

For at least one entry, the source does not settle the construct or the ends of the probe. No signal at the amounts used counts as a negative. Tags and fusion partners may be left off the protein sequences shown.
